Data: article PMC3393737 (PLoS ONE, 2012)

Biological target: T1, ABCB6 (ABCB6-flag) (Homo sapiens, UniProt Q9NP58)
T1 sequence (Q9NP58 1-842): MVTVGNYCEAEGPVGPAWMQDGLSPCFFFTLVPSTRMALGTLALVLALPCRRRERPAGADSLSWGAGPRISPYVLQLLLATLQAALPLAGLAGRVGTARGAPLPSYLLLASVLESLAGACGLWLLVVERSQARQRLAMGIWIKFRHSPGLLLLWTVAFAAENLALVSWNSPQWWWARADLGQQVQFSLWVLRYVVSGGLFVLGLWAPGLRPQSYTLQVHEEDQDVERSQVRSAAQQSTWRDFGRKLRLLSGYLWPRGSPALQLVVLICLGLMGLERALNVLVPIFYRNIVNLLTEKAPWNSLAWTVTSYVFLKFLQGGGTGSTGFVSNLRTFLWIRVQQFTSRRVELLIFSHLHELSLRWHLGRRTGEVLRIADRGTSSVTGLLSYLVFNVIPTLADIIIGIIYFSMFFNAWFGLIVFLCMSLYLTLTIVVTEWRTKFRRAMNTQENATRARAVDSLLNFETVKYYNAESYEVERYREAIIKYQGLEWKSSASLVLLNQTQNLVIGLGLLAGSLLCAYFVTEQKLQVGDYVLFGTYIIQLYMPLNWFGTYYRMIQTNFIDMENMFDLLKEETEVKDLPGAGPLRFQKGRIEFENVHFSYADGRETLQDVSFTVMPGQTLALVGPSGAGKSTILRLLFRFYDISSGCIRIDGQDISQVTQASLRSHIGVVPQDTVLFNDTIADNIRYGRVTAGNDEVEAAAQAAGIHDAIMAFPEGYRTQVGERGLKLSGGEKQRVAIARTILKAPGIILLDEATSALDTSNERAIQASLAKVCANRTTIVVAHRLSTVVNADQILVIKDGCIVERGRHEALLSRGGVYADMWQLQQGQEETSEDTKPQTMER
Conditions: ATP present; does not displace ABCB6 from hemin-agarose at 20 µM, different site suggested

With CC(C)(C)CC(C)(C)c1ccc(OCCOCC[N+](C)(C)Cc2ccccc2)cc1 [BCL, benzethonium chloride] the “inhibition of radiolabelled hemin uptake into mitochondria of ABCB6-expressing c” value was “benzethonium chloride acts as a weak inhibitor of ABCB6 mediated transport of hemin”.
